Source: paper PMC8581162
No constants are given. Whether binding was seen depends on the method and setting. In cells and extracts the contact can be indirect. Some binding calls cover weakened binding; strength is not graded here.

By UniProt entry, the sequences of proteins in these tests, tags left out.
UniProt P27741: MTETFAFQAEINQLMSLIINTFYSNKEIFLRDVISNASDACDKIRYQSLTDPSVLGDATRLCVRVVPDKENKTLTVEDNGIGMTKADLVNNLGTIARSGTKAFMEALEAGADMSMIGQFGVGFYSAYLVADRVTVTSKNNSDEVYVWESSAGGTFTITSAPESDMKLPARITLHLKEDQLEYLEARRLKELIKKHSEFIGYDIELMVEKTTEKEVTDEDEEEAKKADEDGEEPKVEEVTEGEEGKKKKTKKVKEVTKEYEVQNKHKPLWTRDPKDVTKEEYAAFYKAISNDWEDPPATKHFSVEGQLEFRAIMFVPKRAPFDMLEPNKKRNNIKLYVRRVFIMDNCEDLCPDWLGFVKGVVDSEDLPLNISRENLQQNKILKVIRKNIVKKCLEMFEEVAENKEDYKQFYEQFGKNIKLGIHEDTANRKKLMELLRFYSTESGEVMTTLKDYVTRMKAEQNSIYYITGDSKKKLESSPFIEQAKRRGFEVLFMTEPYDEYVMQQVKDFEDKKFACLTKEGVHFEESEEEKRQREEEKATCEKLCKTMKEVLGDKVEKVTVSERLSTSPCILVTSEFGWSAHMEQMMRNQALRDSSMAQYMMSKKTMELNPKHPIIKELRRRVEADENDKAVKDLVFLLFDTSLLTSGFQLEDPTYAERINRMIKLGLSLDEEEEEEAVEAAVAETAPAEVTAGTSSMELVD

Molecular target: Leishmania amazonensis Hsp90 (LHsp90; Hsp83, the ortholog of Hsp90 in trypanosomatids) (L. amazonensis (endogenous in L. amazonensis amastigotes, procyclic and metacyclic promastigotes)) (UniProt P27741)
Assay: co-IP; 20 ug of telomerase-positive (DEAE semi-purified) extracts of Am, PP and MP; polyclonal anti-LbHsp90 or anti-LaTERT serum on DynaBeads protein A; 37 C for 2 h in IP buffer (25 mM TRIS-HCl pH 8.0, 2 mM EDTA, 10% glycerol, protease inhibitors); western blot with anti-LbHsp90 and anti-LaTERT sera

B1: Leishmania amazonensis telomerase reverse transcriptase protein (TERT) (protein, UniProt Q2NNR6 1-1447)
chain: MSASFPSIPGFAGPLSLKAFLEEYFGLHLTFAAETASPSPRAAATAETPSAAGFRALRDVVLPPNQSFLVVVYVALHASSSPPPTTAHASPTPATPDPGCAAPPTGLGRLRQPLAHQTAVSTAHDTCVTRCNPSDRQNPFCLSSSSTGKNGNARSPWCASASWLLYTNTSHRPFTDALLRHPWRASFSACLGPAAMGFIEMYCPIVLQLEAMAGGVQVIGPALKHVALETSFSATAQLSEMKGLPPRGSASVSSRGVKRAVDTGECSAPLPLQKQRRVEAVASPPKAGRRLQREVAPSHRPCRDDSFSSPVNRAAMPATWAAALTRTDDPRTRLYSVRVSDSDCTGDGGGALPLPAGSLEAHWLPRHPRSLHRVLQAALPKRAAYGASTRHYCAGTGERGTGCTSVKNISMWHVAHVFRWLVLQPSQSGEVAFQTTSPKFDLPSYLRRFLSTDVDQCSRLDLRGAALRHTGYLEEAFRRQQQGVEPWDVQRLSTPVDVVVSYLRTLLPTLRWAPLKEANNGLFWGRDAAGSERVLDALMRAVRGWLIAGRQAVVPVSRFLDGVPVAQVPWLNGFYTTTPSLPFSDATSSASRHARRERSQVQQRVWLQFVLFLTQDILPFLLRASFTITWSSKNTHKLLFFPAFVWRRLVRREVRRTRSCHAPRSQMSLAEERTRMSGADHAALVSAPNACGGAVAAAFPSPHSAASNASAAISAPRDEWRAVRTGGALAHWSARATLATRGGGASCLYAGVRFRPDRRKLRPIAVVRSASLRSLKEMARGSPSPYSHASAIVRLLRRLGCSDADGQLPAATATLLRQVQARSRHNRRTGVHRSAHPLPPHLPHKAALQDALRCLVSGVEEQRVRDGLPRLSNLSHQDEYAELRSFCEEVRGRHAIPCEGPAKTTPAVSSASPPGATACFAPYVTLLRSDASRCYDNLPQGRVLAAVRSLVKHDAYRVLRFTVIHAVDSEATCKGGCLLRRTFTTRTIPCAEAECGFLARIPRGHIYWEEEGRTPTGPHTSAAVSRTTDASSRCGANLISGAAVRALLSEHIRHHLVVVSGGSLFEQRVGILQGSPVAMLLCDRLFSNVVDTALSSILSEHAERSLLLRRVDDVLVATTSPAAAERCLRAMQRGWPSVGYLSNPSKLTLSKACGSLVPWCGLLLHDTTLEVSVEWRRIGVLLGSLRVGDPHYVHRGDYEPLYLTQRFLAVLQLRVAPTALCGRMNSKTRQLQTFYEVGLLWTRVVLEKVQEALPVARNCCVTVLLLRPLAVCVGRLCRLLSRHQRFLAARQSACDVSAAEVRACVLTALHRTVQAKLRVLQARTVRAMTAQSGRTQRGPSLKGRRNNFCSTKASSVGRKGCEQRRRGRNRRNTRVCLRSFWWLTAAEVESQWRRSLGALYRAAPRPGEACGSTASSPSPAASASLLMEDGPLSMHARALSATRLSQT
B1 was tested, and the binding was “binds”.
